No constants are given. Whether binding was seen depends on the method and setting. In cells and extracts the contact can be indirect. A yes stands for co-enrichment or nearness to the bait. Other partners may have been found.
B1: splicing factor SF3B1 (protein, UniProt Q99NB9 1-1304)
chain: MAKIAKTHEDIEAQIREIQGKKAALDEAQGVGLDSTGYYDQEIYGGSDSRFAGYVTSIAATELEDDDDDYSSSTSLLGQKKPGYHAPVALLNDIPQSTEQYDPFAEHRPPKIADREDEYKKHRRTMIISPERLDPFADGGKTPDPKMNARTYMDVMREQHLTKEEREIRQQLAEKAKAGELKVVNGAAASQPPSKRKRRWDQTADQTPGATPKKLSSWDQAETPGHTPSLRWDETPGRAKGSETPGATPGSKIWDPTPSHTPAGAATPGRGDTPGHATPGHGGATSSARKNRWDETPKTERDTPGHGSGWAETPRTDRGGDSIGETPTPGASKRKSRWDETPASQMGGSTPVLTPGKTPIGTPAMNMATPTPGHIMSMTPEQLQAWRWEREIDERNRPLSDEELDAMFPEGYKVLPPPAGYVPIRTPARKLTATPTPLGGMTGFHMQTEDRTMKSVNDQPSGNLPFLKPDDIQYFDKLLVDVDESTLSPEEQKERKIMKLLLKIKNGTPPMRKAALRQITDKAREFGAGPLFNQILPLLMSPTLEDQERHLLVKVIDRILYKLDDLVRPYVHKILVVIEPLLIDEDYYARVEGREIISNLAKAAGLATMISTMRPDIDNMDEYVRNTTARAFAVVASALGIPSLLPFLKAVCKSKKSWQARHTGIKIVQQIAILMGCAILPHLRSLVEIIEHGLVDEQQKVRTISALAIAALAEAATPYGIESFDSVLKPLWKGIRQHRGKGLAAFLKAIGYLIPLMDAEYANYYTREVMLILIREFQSPDEEMKKIVLKVVKQCCGTDGVEANYIKTEILPPFFKHFWQHRMALDRRNYRQLVDTTVELANKVGAAEIISRIVDDLKDEAEQYRKMVMETIEKIMGNLGAADIDHKLEEQLIDGILYAFQEQTTEDSVMLNGFGTVVNALGKRVKPYLPQICGTVLWRLNNKSAKVRQQAADLISRTAVVMKTCQEEKLMGHLGVVLYEYLGEEYPEVLGSILGALKAIVNVIGMHKMTPPIKDLLPRLTPILKNRHEKVQENCIDLVGRIADRGAEYVSAREWMRICFELLELLKAHKKAIRRATVNTFGYIAKAIGPHDVLATLLNNLKVQERQNRVCTTVAIAIVAETCSPFTVLPALMNEYRVPELNVQNGVLKSLSFLFEYIGEMGKDYIYAVTPLLEDALMDRDLVHRQTASAVVQHMSLGVYGFGCEDSLNHLLNYVWPNVFETSPHVIQAVMGALEGLRVAIGPCRMLQYCLQGLFHPARKVRDVYWKIYNSIYIGSQDALIAHYPRIYNDDKNTYIRYDLDYIL

Chains of the proteins cited; added tags and fusions are not shown.
UniProt Q9Z148: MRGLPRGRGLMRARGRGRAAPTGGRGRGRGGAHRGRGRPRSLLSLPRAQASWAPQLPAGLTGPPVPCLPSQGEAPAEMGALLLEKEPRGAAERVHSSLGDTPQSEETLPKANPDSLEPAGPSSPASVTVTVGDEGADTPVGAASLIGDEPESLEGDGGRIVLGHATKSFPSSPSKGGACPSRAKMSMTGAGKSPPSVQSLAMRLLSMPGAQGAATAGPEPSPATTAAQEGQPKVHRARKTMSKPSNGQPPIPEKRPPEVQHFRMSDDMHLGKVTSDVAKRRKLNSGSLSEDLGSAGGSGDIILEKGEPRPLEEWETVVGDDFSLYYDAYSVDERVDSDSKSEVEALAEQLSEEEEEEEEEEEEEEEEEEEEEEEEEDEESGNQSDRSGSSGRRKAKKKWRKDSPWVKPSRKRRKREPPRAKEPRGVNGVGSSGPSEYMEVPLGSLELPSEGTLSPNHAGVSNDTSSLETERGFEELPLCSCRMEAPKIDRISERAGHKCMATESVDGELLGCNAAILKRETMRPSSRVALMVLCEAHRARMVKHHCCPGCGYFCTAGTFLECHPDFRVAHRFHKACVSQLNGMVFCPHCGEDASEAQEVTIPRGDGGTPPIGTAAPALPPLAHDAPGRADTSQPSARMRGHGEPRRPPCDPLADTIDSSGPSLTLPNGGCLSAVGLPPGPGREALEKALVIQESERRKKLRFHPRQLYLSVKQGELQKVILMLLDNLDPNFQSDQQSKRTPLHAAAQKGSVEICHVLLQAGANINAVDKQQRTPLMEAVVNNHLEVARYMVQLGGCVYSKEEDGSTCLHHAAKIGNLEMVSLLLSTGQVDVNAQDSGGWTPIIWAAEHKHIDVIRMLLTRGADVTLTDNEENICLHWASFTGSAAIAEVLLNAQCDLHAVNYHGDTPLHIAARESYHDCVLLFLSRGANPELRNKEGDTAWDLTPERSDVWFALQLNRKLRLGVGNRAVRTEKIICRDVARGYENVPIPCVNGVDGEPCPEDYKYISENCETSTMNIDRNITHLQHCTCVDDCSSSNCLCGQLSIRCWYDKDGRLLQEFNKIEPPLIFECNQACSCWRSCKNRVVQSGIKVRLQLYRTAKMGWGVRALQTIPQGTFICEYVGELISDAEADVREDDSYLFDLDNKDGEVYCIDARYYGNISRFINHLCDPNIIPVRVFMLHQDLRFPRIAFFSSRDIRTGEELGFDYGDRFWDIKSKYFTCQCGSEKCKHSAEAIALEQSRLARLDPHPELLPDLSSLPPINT
UniProt Q7JJ13: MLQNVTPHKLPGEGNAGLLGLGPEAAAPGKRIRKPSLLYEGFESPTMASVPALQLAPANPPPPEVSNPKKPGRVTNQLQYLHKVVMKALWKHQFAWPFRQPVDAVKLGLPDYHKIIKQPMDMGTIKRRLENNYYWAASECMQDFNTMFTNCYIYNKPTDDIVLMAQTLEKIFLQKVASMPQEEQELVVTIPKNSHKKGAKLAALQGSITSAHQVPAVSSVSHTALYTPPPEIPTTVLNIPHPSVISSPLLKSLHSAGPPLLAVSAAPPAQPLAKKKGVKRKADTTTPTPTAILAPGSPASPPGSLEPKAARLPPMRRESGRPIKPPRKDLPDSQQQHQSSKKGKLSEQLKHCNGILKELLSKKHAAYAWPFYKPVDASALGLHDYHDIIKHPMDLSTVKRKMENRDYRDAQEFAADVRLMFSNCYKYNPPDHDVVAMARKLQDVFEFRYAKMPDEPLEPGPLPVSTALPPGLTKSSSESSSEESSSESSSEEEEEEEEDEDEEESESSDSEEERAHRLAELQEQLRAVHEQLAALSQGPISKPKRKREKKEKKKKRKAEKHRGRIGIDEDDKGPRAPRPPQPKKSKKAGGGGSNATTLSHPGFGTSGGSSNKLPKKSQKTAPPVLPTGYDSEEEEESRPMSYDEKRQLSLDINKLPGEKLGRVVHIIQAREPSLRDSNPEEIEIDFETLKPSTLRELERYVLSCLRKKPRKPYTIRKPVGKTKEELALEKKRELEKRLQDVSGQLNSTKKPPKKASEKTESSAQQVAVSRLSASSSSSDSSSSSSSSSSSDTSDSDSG
UniProt P45481: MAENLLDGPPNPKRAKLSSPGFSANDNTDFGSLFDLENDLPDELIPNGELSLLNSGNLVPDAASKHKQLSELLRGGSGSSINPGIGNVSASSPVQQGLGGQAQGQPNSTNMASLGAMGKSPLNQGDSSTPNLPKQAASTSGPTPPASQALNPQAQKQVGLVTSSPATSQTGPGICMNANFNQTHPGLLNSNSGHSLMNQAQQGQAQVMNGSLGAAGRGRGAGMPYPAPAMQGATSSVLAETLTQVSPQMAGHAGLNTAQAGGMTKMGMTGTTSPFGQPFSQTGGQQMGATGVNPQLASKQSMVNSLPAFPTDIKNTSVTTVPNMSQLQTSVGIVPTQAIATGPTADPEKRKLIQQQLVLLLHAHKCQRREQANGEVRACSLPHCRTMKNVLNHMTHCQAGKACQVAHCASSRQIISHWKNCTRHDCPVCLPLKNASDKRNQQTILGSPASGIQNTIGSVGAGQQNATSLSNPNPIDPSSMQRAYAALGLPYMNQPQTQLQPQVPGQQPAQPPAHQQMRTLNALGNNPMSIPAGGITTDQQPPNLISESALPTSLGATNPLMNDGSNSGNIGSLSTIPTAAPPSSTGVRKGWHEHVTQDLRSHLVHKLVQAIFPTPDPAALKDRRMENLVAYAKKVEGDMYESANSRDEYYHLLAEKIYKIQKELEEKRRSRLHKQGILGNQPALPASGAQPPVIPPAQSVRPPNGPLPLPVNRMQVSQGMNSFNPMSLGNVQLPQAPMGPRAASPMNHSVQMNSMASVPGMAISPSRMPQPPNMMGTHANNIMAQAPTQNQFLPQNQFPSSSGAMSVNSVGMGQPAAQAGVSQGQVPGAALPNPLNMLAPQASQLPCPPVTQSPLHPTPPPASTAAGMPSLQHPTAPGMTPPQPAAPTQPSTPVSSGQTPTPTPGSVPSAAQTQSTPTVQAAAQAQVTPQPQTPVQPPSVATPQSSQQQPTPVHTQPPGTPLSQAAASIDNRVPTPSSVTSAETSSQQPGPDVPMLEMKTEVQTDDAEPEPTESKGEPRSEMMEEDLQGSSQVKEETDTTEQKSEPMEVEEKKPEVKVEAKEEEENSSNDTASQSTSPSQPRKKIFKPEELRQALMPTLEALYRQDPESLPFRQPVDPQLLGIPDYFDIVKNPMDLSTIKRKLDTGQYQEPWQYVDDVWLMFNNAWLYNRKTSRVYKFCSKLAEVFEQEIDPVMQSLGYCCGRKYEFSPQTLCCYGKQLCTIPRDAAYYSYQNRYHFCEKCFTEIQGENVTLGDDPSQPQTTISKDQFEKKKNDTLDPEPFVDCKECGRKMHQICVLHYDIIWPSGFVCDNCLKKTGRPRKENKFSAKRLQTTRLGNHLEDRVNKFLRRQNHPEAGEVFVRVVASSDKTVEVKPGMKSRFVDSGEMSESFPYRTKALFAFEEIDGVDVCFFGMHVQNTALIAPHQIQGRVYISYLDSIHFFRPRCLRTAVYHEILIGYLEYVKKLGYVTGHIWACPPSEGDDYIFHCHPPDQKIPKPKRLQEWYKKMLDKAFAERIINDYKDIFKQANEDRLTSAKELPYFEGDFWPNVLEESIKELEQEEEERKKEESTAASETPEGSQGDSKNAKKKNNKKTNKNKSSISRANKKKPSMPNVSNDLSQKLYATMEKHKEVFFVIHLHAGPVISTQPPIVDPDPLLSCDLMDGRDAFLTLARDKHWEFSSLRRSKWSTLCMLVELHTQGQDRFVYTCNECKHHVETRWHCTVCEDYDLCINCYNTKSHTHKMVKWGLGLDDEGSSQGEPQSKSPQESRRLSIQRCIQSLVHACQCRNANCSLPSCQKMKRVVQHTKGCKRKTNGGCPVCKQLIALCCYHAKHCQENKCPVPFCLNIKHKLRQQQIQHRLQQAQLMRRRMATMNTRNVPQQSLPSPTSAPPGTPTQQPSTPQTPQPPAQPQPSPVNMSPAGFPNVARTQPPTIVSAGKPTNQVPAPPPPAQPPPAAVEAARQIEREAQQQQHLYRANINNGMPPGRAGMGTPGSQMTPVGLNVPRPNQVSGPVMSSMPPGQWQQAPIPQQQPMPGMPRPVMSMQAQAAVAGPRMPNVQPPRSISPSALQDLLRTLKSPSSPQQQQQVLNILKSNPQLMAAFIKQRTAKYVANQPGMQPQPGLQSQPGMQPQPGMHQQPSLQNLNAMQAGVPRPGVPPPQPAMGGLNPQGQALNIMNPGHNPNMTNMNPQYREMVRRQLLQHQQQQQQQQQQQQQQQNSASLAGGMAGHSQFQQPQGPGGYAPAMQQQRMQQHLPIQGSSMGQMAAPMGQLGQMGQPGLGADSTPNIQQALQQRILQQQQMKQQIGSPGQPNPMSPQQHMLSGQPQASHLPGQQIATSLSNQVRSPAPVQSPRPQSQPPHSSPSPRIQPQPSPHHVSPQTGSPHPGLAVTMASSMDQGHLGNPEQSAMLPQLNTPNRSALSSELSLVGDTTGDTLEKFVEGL
UniProt Q921E6: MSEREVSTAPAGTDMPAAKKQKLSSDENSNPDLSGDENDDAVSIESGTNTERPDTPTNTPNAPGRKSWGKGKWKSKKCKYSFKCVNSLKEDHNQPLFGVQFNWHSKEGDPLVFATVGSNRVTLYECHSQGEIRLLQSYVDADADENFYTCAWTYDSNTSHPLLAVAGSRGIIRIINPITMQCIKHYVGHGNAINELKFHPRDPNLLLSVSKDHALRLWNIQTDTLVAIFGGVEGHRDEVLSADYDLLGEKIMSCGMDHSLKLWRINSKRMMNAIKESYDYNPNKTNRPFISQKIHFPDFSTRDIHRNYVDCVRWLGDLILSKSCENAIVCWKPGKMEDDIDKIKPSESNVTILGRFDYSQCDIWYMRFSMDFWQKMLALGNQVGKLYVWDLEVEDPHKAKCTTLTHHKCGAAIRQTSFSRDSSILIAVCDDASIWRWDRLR
UniProt Q80U70: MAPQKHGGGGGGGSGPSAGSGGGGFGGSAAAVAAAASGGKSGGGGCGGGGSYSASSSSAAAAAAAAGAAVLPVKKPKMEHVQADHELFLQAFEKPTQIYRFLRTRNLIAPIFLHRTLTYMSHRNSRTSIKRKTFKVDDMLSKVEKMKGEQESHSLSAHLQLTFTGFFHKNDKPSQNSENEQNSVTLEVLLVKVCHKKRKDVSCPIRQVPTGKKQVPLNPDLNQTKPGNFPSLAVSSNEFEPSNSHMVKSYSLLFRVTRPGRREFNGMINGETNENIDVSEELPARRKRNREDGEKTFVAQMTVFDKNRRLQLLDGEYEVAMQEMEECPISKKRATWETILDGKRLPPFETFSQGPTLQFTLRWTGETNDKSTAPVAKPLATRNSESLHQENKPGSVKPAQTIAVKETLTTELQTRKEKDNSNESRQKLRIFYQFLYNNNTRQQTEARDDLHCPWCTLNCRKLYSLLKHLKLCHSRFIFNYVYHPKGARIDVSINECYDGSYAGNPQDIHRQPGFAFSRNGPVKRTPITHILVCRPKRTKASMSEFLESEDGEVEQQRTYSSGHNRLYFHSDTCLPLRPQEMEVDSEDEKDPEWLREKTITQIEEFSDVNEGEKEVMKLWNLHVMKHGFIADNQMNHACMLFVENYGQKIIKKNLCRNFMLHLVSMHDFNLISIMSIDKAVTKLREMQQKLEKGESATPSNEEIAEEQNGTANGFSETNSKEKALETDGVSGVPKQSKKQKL
UniProt Q61188: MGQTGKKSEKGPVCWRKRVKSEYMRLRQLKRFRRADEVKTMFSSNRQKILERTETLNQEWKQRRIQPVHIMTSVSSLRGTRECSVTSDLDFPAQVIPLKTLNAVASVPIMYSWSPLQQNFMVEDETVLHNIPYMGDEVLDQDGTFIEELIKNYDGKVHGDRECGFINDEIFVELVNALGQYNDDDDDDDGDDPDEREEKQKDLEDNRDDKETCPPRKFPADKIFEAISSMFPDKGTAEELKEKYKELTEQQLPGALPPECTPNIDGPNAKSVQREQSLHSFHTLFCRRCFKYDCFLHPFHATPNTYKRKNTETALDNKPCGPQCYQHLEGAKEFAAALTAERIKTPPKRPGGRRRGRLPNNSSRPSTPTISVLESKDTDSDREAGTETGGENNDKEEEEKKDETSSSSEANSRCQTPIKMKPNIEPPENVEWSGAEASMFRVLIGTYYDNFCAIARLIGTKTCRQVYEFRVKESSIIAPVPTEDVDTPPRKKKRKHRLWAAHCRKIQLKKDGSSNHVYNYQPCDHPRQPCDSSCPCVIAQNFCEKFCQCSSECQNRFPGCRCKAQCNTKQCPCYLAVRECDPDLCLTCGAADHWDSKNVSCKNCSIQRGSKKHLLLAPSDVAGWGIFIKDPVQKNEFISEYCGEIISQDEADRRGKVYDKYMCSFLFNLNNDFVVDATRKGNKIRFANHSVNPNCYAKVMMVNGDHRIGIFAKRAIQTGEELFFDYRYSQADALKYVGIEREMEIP

What follows are molecules tested against G9a (EHMT2), endogenous, captured by the biotinylated G9a inhibitor UNC0965 (mouse (endogenous in Raw 264.7)) (UniProt Q9Z148) (assay: affinity purification with mass spectrometry).

**Q.** How did the binding turn out when B1 was run?
**A.** Its binding is “binds”.

Molecular target: G9a (EHMT2), endogenous, captured by the biotinylated G9a inhibitor UNC0965 (mouse (endogenous in Raw 264.7)) (UniProt Q9Z148)
Experiment: affinity purification with mass spectrometry
Remark: another data set of the same source

**Q.** Which binding does the source give for BRD2 (from UniProt Q7JJ13 1-798) here?
**A.** Its binding is “binds”.

**Q.** For CREBBP (from UniProt P45481 1-2441), which binding is on record?
**A.** Its binding is “binds”.

**Q.** EED (from UniProt Q921E6 1-441) was tested. Which binding did it give?
**A.** Its binding is “binds”.

**Q.** Which binding does the source give for SMARCA2 (from UniProt Q6DIC0 1-1577) here?
**A.** The binding was “binds”.

**Q.** How did the binding turn out when SMARCA4 (from UniProt Q3TKT4 1-1613) was run?
**A.** Its binding is “binds”.

**Q.** How did the binding turn out when SUZ12 (from UniProt Q80U70 1-741) was run?
**A.** Its binding is “binds”.

**Q.** How did the binding turn out when “histone methyltransferase Ezh2 (Enhancer of zeste homolog 2) (from UniProt Q61188 1-746) (enzyme)” was run?
**A.** Its binding is “binds”.

— publication doi:10.1101/2020.11.14.382416
